Measured values reported in patent US7879868B2 (Novartis AG, priority 2002, dated 2011).

What was measured:
Conditions in all cases: Homo sapiens, SAOS-2, read-out: concentration causing 50% growth inhibition, imatinib alone
Saos2pcDNA#3#2 cells = assay: Growth inhibition in vector control Saos2 cells; assay type: cell-based
Saos2BCRP#4 cells = assay: cells
Saos2BCRPMUT#10 cells = assay: cells

Cc1ccc(NC(=O)c2ccc(CN3CCN(C)CC3)cc2)cc1Nc1nccc(-c2cccnc2)n1 [imatinib]
IC50 (Saos2pcDNA#3#2 cells): 7.3 µM
IC50 (Saos2BCRP#4 cells): 9.6 µM
IC50 (Saos2BCRPMUT#10 cells): 9.5 µM
